According to article PMC7862700:
The other results are listed elsewhere or left out. The source does not settle which construct or isoform was used.

biological target: T1, ELF2 (UniProt Q15723); experiment: DAPPL (digital affinity profiling via proximity ligation, sequencing); conditions: 10 mM Tris-HCl pH 7.5, 50 mM NaCl, 1 mM DTT, 4% glycerol, room temperature, 30 min; GST-TFs on glutathione beads, 16-mer random dsDNA library, 0.1% …; high values mean tight binding; double strand, one strand shown; scale: fold enrichment (6-mer frequency, TF over GST control)
T1 sequence: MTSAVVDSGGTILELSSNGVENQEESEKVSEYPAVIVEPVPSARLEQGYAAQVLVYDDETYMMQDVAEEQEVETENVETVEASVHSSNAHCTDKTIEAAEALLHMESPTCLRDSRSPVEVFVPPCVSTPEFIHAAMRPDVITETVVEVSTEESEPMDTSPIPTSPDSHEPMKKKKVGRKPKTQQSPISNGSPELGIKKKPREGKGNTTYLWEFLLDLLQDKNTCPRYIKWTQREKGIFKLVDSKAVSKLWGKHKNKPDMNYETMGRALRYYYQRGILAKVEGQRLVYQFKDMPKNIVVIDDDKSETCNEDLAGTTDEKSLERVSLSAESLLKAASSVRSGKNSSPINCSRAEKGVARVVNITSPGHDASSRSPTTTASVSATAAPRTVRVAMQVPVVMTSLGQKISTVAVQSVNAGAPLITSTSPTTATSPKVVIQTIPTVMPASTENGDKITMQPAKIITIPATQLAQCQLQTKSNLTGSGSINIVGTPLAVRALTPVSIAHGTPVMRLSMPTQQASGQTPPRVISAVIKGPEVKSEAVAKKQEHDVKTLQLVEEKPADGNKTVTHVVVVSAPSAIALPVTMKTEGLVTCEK

Sequence | binding signal
ATTGAC | 1.19
TTTCTC | 1.52
CTTACG | 1.04
TAATCT | 1.35
TCCTCA | 1.61
ATGGTA | 1.29
TATACT | 1.37
TTTGAA | 1.16
TACATG | 1.14
CCCCCA | 1.15
AAGTAA | 1.42
ATGACG | 1.27
TGTACT | 1.33
ACCGAA | 1.03
ATTCCG | 2.25
AAACAT | 1.45
ATGCAA | 1.17
AATAGC | 1.13
TACACG | 1.14
GCTGAA | 1.13

Given comma-delimited: part of the list above
Sequence,binding signal
CTTACG,1.04
TAATCT,1.35
TCCTCA,1.61

Later entries:

Sequence | binding signal
ATTTAC | 1.24
AGATTC | 1.17
ACTTAT | 1.34
CCCGAC | 1.24
CGAAGC | 1.2
CGAGTT | 1.08
ACCTCG | 1.05
CCTCTT | 1.68
AATGAG | 1.11
GCTATA | 1.08
CGTCCC | 1.22
AAAAGG | 1.11
CCCGGA | 4.79
GATTTC | 2.07
TAATGA | 1.12
TAATGT | 1.07
ATACAA | 1.09
CGATGA | 0.972
GTGCTC | 1.13
